# Data as given in the supplement of paper PMC8728848.
# This is one part of the list.
# B1: Protectin (Homo sapiens), P13987 (protein)
# chain: MGIQGGSVLFGLLLVLAVFCHSGHSLQCYNCPNPTADCKTAVNCSSDFDACLITKAGLQVYNKCWKFEHCNFNDVTTRLRENELTYYCCKKDLCNFNEQLENGGTSLSEKTVLLLVTPFLAAAWSLHP
# How the values were obtained:
# Assay in all cases: glycan array binding signal (z-score within array); higher = stronger binding
# Details in all cases: glycan notation: IUPAC condensed, linker removed
# [1] = biological target: Gal(b1-4)GlcNAc(b1-3)Gal(b1-4)Glc
# Procedure, shortened: (§1)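 From the Consortium for Functional Glycomics database, 3228 arrays were curated, keeping only those whose protein sequence was available. Binding is given as a within-array Z-score averaged across arrays sharing a protein sequence and across linkers. Negative Z-scores can be read as non-binding.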
# [2] = biological target: Gal(b1-4)GlcNAc(b1-3)Gal(b1-4)GlcNAc
# Procedure, shortened: as §1
# [3] = biological target: Gal(b1-4)GlcNAc(b1-3)Gal(b1-4)GlcNAc(b1-3)Gal(b1-4)GlcNAc
# Procedure, shortened: as §1
# [4] = biological target: Gal(b1-4)GlcNAc(b1-3)Gal(b1-4)[Fuc(a1-3)GlcNAc(b1-6)]Gal(b1-4)Glc
# Procedure, shortened: as §1
# [5] = biological target: Gal(b1-4)GlcNAc(b1-3)Gal(b1-4)[Fuc(a1-3)]GlcNAc(b1-3)Gal(b1-4)[Fuc(a1-3)]GlcNAc
# Procedure, shortened: as §1
# [6] = biological target: Gal(b1-4)GlcNAc(b1-3)GalNAc
# Procedure, shortened: as §1
# [7] = biological target: Gal(b1-4)GlcNAc(b1-3)[Gal(b1-4)GlcNAc(b1-6)]Gal(b1-4)GlcNAc
# Procedure, shortened: as §1
# [8] = biological target: Gal(b1-4)GlcNAc(b1-3)[Gal(b1-4)GlcNAc(b1-6)]GalNAc
# Procedure, shortened: as §1
# [9] = biological target: Gal(b1-4)GlcNAc(b1-3)[GlcNAc(b1-6)]Gal(b1-4)GlcNAc
# Procedure, shortened: as §1
# [10] = biological target: Gal(b1-4)GlcNAc(b1-6)Gal(b1-4)GlcNAc
# Procedure, shortened: as §1
# [11] = biological target: Gal(b1-4)GlcNAc(b1-6)GalNAc
# Procedure, shortened: as §1
# [12] = biological target: Gal(b1-4)GlcNAc(b1-6)[Gal(b1-3)]GalNAc
# Procedure, shortened: as §1
# Gal(b1-6)Gal = biological target: Gal(b1-6)Gal
# Procedure, shortened: as §1
# Gal3S(b1-3)GalNAc = biological target: Gal3S(b1-3)GalNAc
# Procedure, shortened: as §1
# Gal3S(b1-3)GlcNAc = biological target: Gal3S(b1-3)GlcNAc
# Procedure, shortened: as §1
# [13] = biological target: Gal3S(b1-3)[Fuc(a1-4)]GlcNAc
# Procedure, shortened: as §1
# Gal3S(b1-4)Glc = biological target: Gal3S(b1-4)Glc
# Procedure, shortened: as §1
# Gal3S(b1-4)Glc6S = biological target: Gal3S(b1-4)Glc6S
# Procedure, shortened: as §1
# Gal3S(b1-4)GlcNAc = biological target: Gal3S(b1-4)GlcNAc
# Procedure, shortened: as §1
# Gal3S(b1-4)GlcNAc6S = biological target: Gal3S(b1-4)GlcNAc6S
# Procedure, shortened: as §1
# [14] = biological target: Gal3S(b1-4)[Fuc(a1-3)]Glc
# Procedure, shortened: as §1
# [15] = biological target: Gal3S(b1-4)[Fuc(a1-3)]Glc6S
# Procedure, shortened: as §1
# Gal3S4S(b1-4)GlcNAc = biological target: Gal3S4S(b1-4)GlcNAc
# Procedure, shortened: as §1
# Gal3S6S(b1-4)GlcNAc = biological target: Gal3S6S(b1-4)GlcNAc
# Procedure, shortened: as §1
# Gal3S6S(b1-4)GlcNAc6S = biological target: Gal3S6S(b1-4)GlcNAc6S
# Procedure, shortened: as §1
# Gal4S(b1-4)GlcNAc = biological target: Gal4S(b1-4)GlcNAc
# Procedure, shortened: as §1
# Gal4S6S(b1-4)GlcNAc = biological target: Gal4S6S(b1-4)GlcNAc
# Procedure, shortened: as §1
# Gal6S(b1-3)GlcNAc = biological target: Gal6S(b1-3)GlcNAc
# Procedure, shortened: as §1
# Gal6S(b1-3)GlcNAc6S = biological target: Gal6S(b1-3)GlcNAc6S
# Procedure, shortened: as §1
# Gal6S(b1-4)Glc = biological target: Gal6S(b1-4)Glc
# Procedure, shortened: as §1
# Gal6S(b1-4)Glc6S = biological target: Gal6S(b1-4)Glc6S
# Procedure, shortened: as §1
# Gal6S(b1-4)GlcNAc = biological target: Gal6S(b1-4)GlcNAc
# Procedure, shortened: as §1
# Gal6S(b1-4)GlcNAc6S = biological target: Gal6S(b1-4)GlcNAc6S
# Procedure, shortened: as §1
# GalNAc(a1-3)Gal = biological target: GalNAc(a1-3)Gal
# Procedure, shortened: as §1
# GalNAc(a1-3)GalNAc = biological target: GalNAc(a1-3)GalNAc
# Procedure, shortened: as §1
# [16] = biological target: GalNAc(a1-3)GalNAc(a1-3)Gal(a1-4)Gal(b1-4)GlcNAc
# Procedure, shortened: as §1
# [17] = biological target: GalNAc(a1-3)GalNAc(b1-3)Gal(a1-4)Gal(b1-4)Glc
# Procedure, shortened: as §1
# GalNAc(b1-3)Gal = biological target: GalNAc(b1-3)Gal
# Procedure, shortened: as §1
# [18] = biological target: GalNAc(b1-3)Gal(a1-4)Gal(b1-4)GlcNAc
# Procedure, shortened: as §1
# [19] = biological target: GalNAc(b1-3)Gal(a1-4)Gal(b1-4)GlcNAc(b1-3)Gal(b1-4)Glc
# Procedure, shortened: as §1
# [20] = biological target: GalNAc(b1-3)Gal(a1-6)Gal(b1-4)Glc
# Procedure, shortened: as §1
# GalNAc(b1-3)GalNAc = biological target: GalNAc(b1-3)GalNAc
# Procedure, shortened: as §1
# GalNAc(b1-4)Gal(b1-4)Glc = biological target: GalNAc(b1-4)Gal(b1-4)Glc
# Procedure, shortened: as §1
# GalNAc(b1-4)GlcNAc = biological target: GalNAc(b1-4)GlcNAc
# Procedure, shortened: as §1
# [21] = biological target: GalNAc(b1-4)GlcNAc(b1-2)Man(a1-3)[GalNAc(b1-4)GlcNAc(b1-2)Man(a1-6)]Man(b1-4)GlcNAc(b1-4)GlcNAc
# Procedure, shortened: as §1
binder,measurement,setting,value
B1,glycan array binding signal (z-score),[1],-0.237
same,glycan array binding signal (z-score),[2],-1.59
same,glycan array binding signal (z-score),[3],-1.17
same,glycan array binding signal (z-score),[4],-0.518
same,glycan array binding signal (z-score),[5],1.13
same,glycan array binding signal (z-score),[6],-0.483
same,glycan array binding signal (z-score),[7],1.06
same,glycan array binding signal (z-score),[8],-1.18
same,glycan array binding signal (z-score),[9],-1.04
same,glycan array binding signal (z-score),[10],-0.131
same,glycan array binding signal (z-score),[11],-0.504
same,glycan array binding signal (z-score),[12],-0.321
same,glycan array binding signal (z-score),Gal(b1-6)Gal,-2
same,glycan array binding signal (z-score),Gal3S(b1-3)GalNAc,0.141
same,glycan array binding signal (z-score),Gal3S(b1-3)GlcNAc,-0.589
same,glycan array binding signal (z-score),[13],0.361
same,glycan array binding signal (z-score),Gal3S(b1-4)Glc,0.803
same,glycan array binding signal (z-score),Gal3S(b1-4)Glc6S,-0.411
same,glycan array binding signal (z-score),Gal3S(b1-4)GlcNAc,-0.74
same,glycan array binding signal (z-score),Gal3S(b1-4)GlcNAc6S,-0.362
same,glycan array binding signal (z-score),[14],-0.266
same,glycan array binding signal (z-score),[15],1.05
same,glycan array binding signal (z-score),Gal3S4S(b1-4)GlcNAc,0.418
same,glycan array binding signal (z-score),Gal3S6S(b1-4)GlcNAc,-0.261
same,glycan array binding signal (z-score),Gal3S6S(b1-4)GlcNAc6S,0.138
same,glycan array binding signal (z-score),Gal4S(b1-4)GlcNAc,-0.743
same,glycan array binding signal (z-score),Gal4S6S(b1-4)GlcNAc,0.014
same,glycan array binding signal (z-score),Gal6S(b1-3)GlcNAc,0.224
same,glycan array binding signal (z-score),Gal6S(b1-3)GlcNAc6S,-1.26
same,glycan array binding signal (z-score),Gal6S(b1-4)Glc,-0.469
same,glycan array binding signal (z-score),Gal6S(b1-4)Glc6S,-0.413
same,glycan array binding signal (z-score),Gal6S(b1-4)GlcNAc,-1.7
same,glycan array binding signal (z-score),Gal6S(b1-4)GlcNAc6S,0.08
same,glycan array binding signal (z-score),GalNAc(a1-3)Gal,-0.944
same,glycan array binding signal (z-score),GalNAc(a1-3)GalNAc,-2.03
same,glycan array binding signal (z-score),[16],-0.351
same,glycan array binding signal (z-score),[17],1.35
same,glycan array binding signal (z-score),GalNAc(b1-3)Gal,-1.36
same,glycan array binding signal (z-score),[18],-0.395
same,glycan array binding signal (z-score),[19],-0.122
same,glycan array binding signal (z-score),[20],1.77
same,glycan array binding signal (z-score),GalNAc(b1-3)GalNAc,-0.822
same,glycan array binding signal (z-score),GalNAc(b1-4)Gal(b1-4)Glc,2.18
same,glycan array binding signal (z-score),GalNAc(b1-4)GlcNAc,-0.146
same,glycan array binding signal (z-score),[21],2.58

# Part of the list above in a different format:
binder	measurement	setting	value
B1	glycan array binding signal (z-score)	[3]	-1.17
same	glycan array binding signal (z-score)	[4]	-0.518
same	glycan array binding signal (z-score)	Gal3S(b1-3)GalNAc	0.141
same	glycan array binding signal (z-score)	Gal3S(b1-4)Glc6S	-0.411
same	glycan array binding signal (z-score)	Gal3S(b1-4)GlcNAc	-0.74
same	glycan array binding signal (z-score)	Gal3S(b1-4)GlcNAc6S	-0.362
same	glycan array binding signal (z-score)	Gal3S6S(b1-4)GlcNAc6S	0.138
same	glycan array binding signal (z-score)	Gal6S(b1-4)Glc6S	-0.413
same	glycan array binding signal (z-score)	[16]	-0.351
same	glycan array binding signal (z-score)	[17]	1.35
same	glycan array binding signal (z-score)	[21]	2.58
